No constants are given. Whether binding was seen depends on the method and setting. For part of these data: In cells and extracts the contact can be indirect. Some binding calls cover weakened binding; strength is not graded here. For part of these data: Where a sequence is shown, tags or fusion partners need not be part of it. Blank lines part the entries; values can stand above or below the substance they belong to.
Assays:
BTN1A1-Flag (human) [1] = target: T1, BTN1A1-Flag (human) (UniProt Q13410); test: co-immunoprecipitation, legend of FIGS. 2A-C
T1 sequence: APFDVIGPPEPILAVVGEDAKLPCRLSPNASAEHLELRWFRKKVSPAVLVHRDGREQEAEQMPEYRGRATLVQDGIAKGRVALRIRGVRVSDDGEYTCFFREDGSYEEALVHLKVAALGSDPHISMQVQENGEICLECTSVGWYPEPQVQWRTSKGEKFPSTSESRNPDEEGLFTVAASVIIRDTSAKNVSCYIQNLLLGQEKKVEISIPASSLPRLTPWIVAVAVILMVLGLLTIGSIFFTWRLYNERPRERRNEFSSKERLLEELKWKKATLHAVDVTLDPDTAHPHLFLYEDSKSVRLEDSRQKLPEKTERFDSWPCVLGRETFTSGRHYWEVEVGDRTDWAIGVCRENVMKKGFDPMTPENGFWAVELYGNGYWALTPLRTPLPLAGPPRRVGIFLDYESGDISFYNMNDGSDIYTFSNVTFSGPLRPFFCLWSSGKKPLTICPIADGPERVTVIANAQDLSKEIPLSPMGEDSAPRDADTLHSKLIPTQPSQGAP

Protein sequences, listed by entry. Tags and fused reporters are not part of them. Lines headed by an entry give the natural chain unless they say otherwise; changes in a name come on top.
UniProt Q13410: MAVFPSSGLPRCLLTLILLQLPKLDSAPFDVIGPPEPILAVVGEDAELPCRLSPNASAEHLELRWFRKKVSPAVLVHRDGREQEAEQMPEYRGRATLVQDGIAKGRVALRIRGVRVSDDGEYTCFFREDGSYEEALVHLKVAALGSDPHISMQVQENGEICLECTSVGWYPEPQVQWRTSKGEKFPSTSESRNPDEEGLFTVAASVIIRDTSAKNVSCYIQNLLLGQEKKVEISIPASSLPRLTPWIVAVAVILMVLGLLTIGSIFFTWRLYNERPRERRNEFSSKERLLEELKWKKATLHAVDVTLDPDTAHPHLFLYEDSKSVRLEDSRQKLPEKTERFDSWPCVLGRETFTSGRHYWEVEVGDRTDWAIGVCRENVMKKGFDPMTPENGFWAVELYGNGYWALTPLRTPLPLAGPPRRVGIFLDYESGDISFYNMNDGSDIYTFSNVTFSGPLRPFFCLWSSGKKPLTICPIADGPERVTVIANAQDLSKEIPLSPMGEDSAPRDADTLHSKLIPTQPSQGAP
UniProt P09382: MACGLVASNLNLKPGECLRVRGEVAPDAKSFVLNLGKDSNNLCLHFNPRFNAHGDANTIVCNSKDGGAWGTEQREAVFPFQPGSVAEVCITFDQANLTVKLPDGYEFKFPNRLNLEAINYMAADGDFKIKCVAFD
UniProt Q7Z6A9: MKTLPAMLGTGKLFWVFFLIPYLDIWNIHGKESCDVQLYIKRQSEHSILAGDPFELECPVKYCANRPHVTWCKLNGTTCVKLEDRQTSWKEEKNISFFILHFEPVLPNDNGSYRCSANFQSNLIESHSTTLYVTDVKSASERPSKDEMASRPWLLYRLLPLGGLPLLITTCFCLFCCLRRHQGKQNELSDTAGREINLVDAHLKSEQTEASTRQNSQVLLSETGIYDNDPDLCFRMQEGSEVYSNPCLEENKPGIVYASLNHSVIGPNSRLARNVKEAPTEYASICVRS
UniProt O60462: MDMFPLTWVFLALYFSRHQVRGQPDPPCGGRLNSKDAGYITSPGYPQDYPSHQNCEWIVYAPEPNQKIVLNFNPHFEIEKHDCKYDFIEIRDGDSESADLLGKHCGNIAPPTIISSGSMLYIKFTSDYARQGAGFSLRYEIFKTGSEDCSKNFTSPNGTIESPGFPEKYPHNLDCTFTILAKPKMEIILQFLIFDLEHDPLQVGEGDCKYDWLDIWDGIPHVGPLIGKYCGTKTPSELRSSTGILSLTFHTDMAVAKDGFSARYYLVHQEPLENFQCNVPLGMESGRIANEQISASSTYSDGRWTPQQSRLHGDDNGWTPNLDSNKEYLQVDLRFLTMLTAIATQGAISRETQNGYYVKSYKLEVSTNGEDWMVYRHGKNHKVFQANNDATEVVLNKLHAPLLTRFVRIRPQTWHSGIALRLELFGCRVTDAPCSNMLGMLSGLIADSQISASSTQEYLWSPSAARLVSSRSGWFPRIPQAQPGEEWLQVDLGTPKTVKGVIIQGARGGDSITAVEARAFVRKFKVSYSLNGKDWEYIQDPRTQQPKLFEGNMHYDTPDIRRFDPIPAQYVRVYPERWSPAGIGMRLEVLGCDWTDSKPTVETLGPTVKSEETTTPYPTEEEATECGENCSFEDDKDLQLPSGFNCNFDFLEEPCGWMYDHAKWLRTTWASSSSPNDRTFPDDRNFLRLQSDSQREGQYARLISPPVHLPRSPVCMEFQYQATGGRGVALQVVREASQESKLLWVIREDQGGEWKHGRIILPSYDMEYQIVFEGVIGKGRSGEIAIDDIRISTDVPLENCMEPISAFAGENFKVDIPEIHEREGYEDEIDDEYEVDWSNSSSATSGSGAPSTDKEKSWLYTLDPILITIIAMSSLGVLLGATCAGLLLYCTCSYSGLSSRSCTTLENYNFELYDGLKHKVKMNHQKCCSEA

BTN1A1-Flag (human) [2] = target: T1, BTN1A1-Flag (human); test: co-immunoprecipitation from HEK293T cell lysates, both directions
BTN1A1-Flag (human) [3] = target: T1, BTN1A1-Flag (human); test: co-immunoprecipitation, title of FIG. 5
BTN1A1-Flag (human) [4] = target: T1, BTN1A1-Flag (human); test: co-immunoprecipitation from HEK293T cells, both directions
BTN1A1-Flag (human) [5] = target: T1, BTN1A1-Flag (human); test: co-immunoprecipitation from HEK293T cells, both directions (Nrp-2 data not shown in FIG. 5)
BTN1A1-ECD-Fc (human) = test: SPR (Biacore), BTN1A1-Fc captured on protein A-coated chip, BTLA at 0.4-6.4 µM, dose-dependent negative signal

- binding (BTN1A1-Flag (human) [1]): binds
- binding (BTN1A1-Flag (human) [2]): binds
Substance: Myc- and Flag-double tagged Gal-1 (from UniProt P09382 1-135) (ligand)

- binding (BTN1A1-Flag (human) [3]): binds
- binding (BTN1A1-Flag (human) [4]): binds
Substance: BTLA-Myc (from UniProt Q7Z6A9 31-289) (receptor)

- binding (BTN1A1-Flag (human) [5]): binds
Substance: Nrp-2-Myc (from UniProt O60462 21-931) (receptor)

- binding (BTN1A1-ECD-Fc (human)): binds
Substance: BTLA-His (from UniProt Q7Z6A9 31-157) (receptor)

— patent US20200131269A1
